Data on 35 molecules can be found in PubChem BioAssay AID2685 (National Center for Advancing Translational Sciences (NCATS), 2010).

The nature of this assay: qHTS Assay for Lipid Storage Modulators in Drosophila S3 Cells.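 For cell number change: cells counted by Cell Tracker Red CMTPX staining in the red channel.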 The conditions noted are these: BODIPY lipid droplet fluorescence, 18-24 h; for cell number change: measured here: cell count max response, cells fed with added oleic acid. In a few lines:
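Drosophila S3 cells got compounds at several concentrations plus oleic acid (400 uM solution). Laser-scanning cytometry with 488 nm excitation read lipid droplets at 500-530 nm and cells at 575-640 nm. Percent activity was relative to 20 uM Triacsin C.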
Background: qHTS replaces the single test concentration by a dilution series.

[1] abbreviates: measured here: cell number channel AC50, cells fed with added oleic acid.
Where [2] appears, read: measured here: lipid fluorescence (Fed channel) AC50, cells fed with added oleic acid.

The other results are listed elsewhere or left out. The main result of the screen is listed elsewhere. These columns were measured beside it and carry no call. Most of these compounds were active or inconclusive in the main read-out, so they are no random draw. Words in brackets tell the shape of the fitted curve; partial curves, single points and poor fits give uncertain potencies.

As to `CC1CC2(C)Oc3ccccc3C3OCC1(CO)C(C)C32` (centres undefined), the cell number change was -42.9%. Under setting [1], the AC50 (commonly the midpoint of the concentration-response curve, whichever way the signal moves) was 29.1 µM [falling, single point]. For the same molecule, the half-maximal activity concentration (AC50) under setting [2] is 25.9 µM [falling, single point].
`COC(=O)C(C)C1Sc2ccccc2NC1=O` (centres undefined): the AC50 under setting [1] is 4.61 µM [falling, single point].
For `Cc1cc(C)c(S(=O)(=O)c2ccccc2)c(OC(=O)c2c(F)cccc2F)n1`, the cell number change was -38.5%. Under setting [1], the AC50 was 14.6 µM [falling, single point].
`CC(C(=O)N1CCc2ccccc21)N1CCN(S(=O)(=O)c2cccs2)CC1` (centres undefined): the cell number change is -25.3%. The AC50 under setting [2] is 29.1 µM [falling, single point].
As to `CCC(C(=O)Nc1nnc(-c2ccco2)s1)c1ccccc1` (centres undefined), the cell number change is -35.4%. Further, under setting [1], the AC50 was 29.1 µM [falling, single point].
For `C/C(=N\NC(=O)c1nnn(-c2nonc2N)c1CN1CCC(C)CC1)c1cccc(Br)c1`, the cell number change is -17.9%. Besides, the AC50 under setting [2] is 0.58 µM [rising, single point].
With `O=C(NC1CCCc2ccccc21)N[C@@H](Cc1ccccc1)C(=O)O` (some centres undefined), the cell number change was -4.17%.
As to `Cc1ccc(C)c(NC(=S)N2CCN(S(C)(=O)=O)CC2)c1`, the cell number change was -3.18%. Further, the AC50 under setting [2] is 20.6 µM [rising, single point].
For `COc1ccc(CCNc2oc(Cc3ccccc3)nc2C#N)cc1OC`, the cell number change is -3.32%. The AC50 under setting [2] was 2.59 µM [rising, partial curve].
With `O=S(=O)([N-]c1nc2ccccc2nc1-[n+]1ccc(Cc2ccccc2)cc1)c1ccc(Br)s1`, the cell number change was -6.47%. Moreover, the AC50 under setting [2] was 0.13 µM [falling, full curve, poor fit].
Take `CCC(=O)N1CCCc2cc(S(=O)(=O)N3CCN(c4ncccn4)CC3)ccc21`: the cell number change came to 37.2%. Under setting [1], the AC50 was 16.4 µM [rising, single point]. Further, under setting [2], the half-maximal activity concentration (AC50) was 16.4 µM [rising, single point].
Take `O=C(COc1ccccc1)NNC(=O)c1cccs1`: the cell number change is 9.27%. Besides, under setting [2], the concentration at half-maximal activity (AC50) is 20.6 µM [rising, partial curve, poor fit].
For the molecule `Cc1ccc(OCCN2C(=O)c3ccccc3C2=O)c([N+](=O)[O-])c1`, the cell number change is 65.2%. Moreover, under setting [1], the AC50 is 0.366 µM [rising, full curve, poor fit]. Moreover, the AC50 under setting [2] is 2.31 µM [rising, partial curve, poor fit].
As to `Cc1ccc(S(=O)(=O)NCCCCCC(N)=O)cc1`, the cell number change was -6.38%. For the same molecule, the AC50 under setting [2] was 1.3 µM [falling, full curve, poor fit].
As for `COc1ccc2nc(SC(C)C(=O)NC3CCCC3)[nH]c2c1` (centres undefined), the cell number change is -88%. The AC50 under setting [1] was 18.4 µM [falling, partial curve]. Besides, the AC50 under setting [2] is 0.92 µM [rising, full curve].
As to `COc1cccc(C(=O)Nc2ccccc2C(=O)NC2CC2)c1`, the cell number change was -6.23%. The AC50 under setting [2] is 29.1 µM [rising, single point].
As for `CCn1c2ccccc2n2c(=O)c(=O)n(CC(=O)Nc3ccc(C(C)C)cc3)nc12`, the cell number change is 2.1%. Moreover, the AC50 under setting [1] is 0.651 µM [falling, single point]. In addition, the AC50 under setting [2] was 1.16 µM [falling, single point].
Turning to `Cc1nc2ncnn2c(N2CCN(C(=O)c3cccc(F)c3)CC2)c1Cc1ccccc1`, the cell number change is 8.25%. Further, under setting [2], the AC50 is 0.291 µM [rising, full curve, poor fit].
As to `COCCN(Cc1ccccc1)C(=S)Nc1ccc(OC(F)F)cc1`, the cell number change is -38.4%. In addition, the concentration at half-maximal activity (AC50) under setting [2] is 0.206 µM [falling, full curve].
As for `c1ccc2c(c1)oc1c(Nc3ccc(CN4CCOCC4)cc3)ncnc12`, the cell number change was -8.57%. In addition, the AC50 under setting [2] is 2.91 µM [rising, full curve].
Consider `CCCCNC(=O)CSc1nc2ccc(NC(=O)CSc3nnc(COc4ccccc4C)n3C)cc2s1`, for which the AC50 runs as follows: under setting [1], 0.517 µM [rising, full curve, poor fit]; under setting [2], 1.03 µM [rising, partial curve].
In the case of `CCOC(=O)C1(Cc2cccc(Cl)c2)CCCN(C(=O)c2cccc(C)n2)C1` (centres undefined), the cell number change is 13.4%. Under setting [2], the AC50 is 13 µM [rising, partial curve].
Regarding `CC(=O)Oc1ccc(N2C(=O)C3C(C2=O)C(C(=O)c2ccc(Cl)cc2)N2CCCC32)cc1` (centres undefined), the cell number change was -32.3%. The AC50 under setting [1] was 32.6 µM [falling, single point]. For the same molecule, under setting [2], the concentration at half-maximal activity (AC50) is 20.6 µM [falling, single point].
Turning to `Cc1ccc2nc(N(CCCN(C)C)C(=O)c3ccc(S(=O)(=O)N4CCCCCC4)cc3)sc2c1`, the cell number change was -1.53%. For the same molecule, the AC50 under setting [2] was 0.112 µM [rising, full curve, poor fit].
Consider `Cc1cc(NC(=O)COC(=O)C2COc3ccccc3O2)no1` (centres undefined), for which the cell number change is -15.6%. For the same molecule, under setting [2], the AC50 was 0.116 µM [rising, single point].
Consider `COc1ccc(CNC(=O)CN2C(=O)C3CCCN3c3ncc(Cl)cc32)cc1` (centres undefined), for which the AC50 under setting [1] was 1.16 µM [rising, partial curve].
Consider `O=C(Nc1ccccc1)c1ccccc1NC(=O)[C@H]1CCCC[C@H]1C(=O)O`, for which the cell number change was -3.86%. For the same molecule, the AC50 under setting [2] is 29.1 µM [rising, single point].
`COc1ccc(C2Oc3ccccc3C3=C2C(c2cccs2)n2ncnc2N3)cc1` (centres undefined): under setting [1], the AC50 was 0.92 µM [rising, full curve, poor fit].
In the case of `CC1CCCN(CC(=O)Nc2cc(S(=O)(=O)N3CCOCC3)ccc2N2CCCC2)C1` (centres undefined), the cell number change was -10.2%. Moreover, under setting [2], the AC50 was 4.11 µM [falling, partial curve].
`O=C(c1cccc(S(=O)(=O)N2CCOCC2)c1)N1CCOCC1`: the AC50 under setting [2] was 1.16 µM [rising, partial curve].
In the case of `Clc1c(OCCCn2ccnc2)ccc2ccccc12`, the cell number change was -53.7%. The AC50 under setting [1] is 29.1 µM [falling, single point]. The AC50 under setting [2] was 1.64 µM [falling, partial curve].
On to `CCn1c(C)nnc1SCC(=O)Nc1ccc(N2CCOCC2)cc1`, for which the cell number change was -7.73%. Besides, under setting [2], the AC50 is 29.1 µM [rising, single point].
Take `CCOC(=O)Cc1cnc(NC(=O)CSc2nc(N)cc(=O)[nH]2)s1`: the cell number change worked out at 61.9%. Besides, the AC50 under setting [1] was 3.26 µM [rising, full curve]. Under setting [2], the AC50 is 29.1 µM [rising, single point].
With `Fc1ccc(CNc2ncnc3cc(Cl)ccc23)cc1`, the cell number change was -43.8%. In addition, the AC50 under setting [1] was 20.6 µM [falling, single point]. For the same molecule, the AC50 under setting [2] is 23.1 µM [falling, single point].
In the case of `CCC(NS(=O)(=O)c1cn(C)nc1C)c1ccccc1` (centres undefined), the cell number change was determined as 24.2%. Further, under setting [2], the AC50 was 35.5 µM [rising, single point].
